Reference: US20190083521A1, “COMBINATION THERAPY FOR TREATING CANCER” (Epizyme, Inc., priority 2014, published 2019)
Counter-ions that a name gives are not always drawn. The name of at least one read-out is uncertain.

Tested on: MOLM-13 cells
Assay: Example 6 combination screen: 300 nM EPZ-5676 pre-treatment, second compound 72 h, ATPLite, IC50 shift
Format: cell-based, human
Conditions: 300 nM EPZ-5676 pre-treatment (4 + 3 days) vs DMSO, then 2nd compound 72 h, IC50 shift of 2nd compound
Experimental: Cells were then equilibrated in incubators for 24 hours before treatment with a second compound. Treated assay plates were incubated with a second compound for 72 hours. After this time, plates were developed for endpoint analysis using ATPLite to measure ATP content, which is used as an indicator of cell viability.
“N/D” means that IC50 of the second compound could not be determined for both conditions.

SMILES | Summary of Combination Studies: MOLM-13
CCc1c2c(nc3ccc(OC(=O)N4CCC(N5CCCCC5)CC4)cc13)-c1cc3c(c(=O)n1C2)COC(=O)[C@]3(O)CC [Irinotecan Hydrochloride] | Synergy (considered synergistic if the IC50 value of the second compound decreased by 2-fold or more when EPZ-5676 was added as compared to the DMSO control)
CCS(=O)(=O)N1CC(CC#N)(n2cc(-c3ncnc4[nH]ccc34)cn2)C1 [Baricitinib] | Synergy (considered synergistic if the IC50 value of the second compound decreased by 2-fold or more when EPZ-5676 was added as compared to the DMSO control)
CNC(=O)c1cc(Oc2ccc(NC(=O)Nc3ccc(Cl)c(C(F)(F)F)c3)cc2)ccn1 [Sorafenib] | Synergy (considered synergistic if the IC50 value of the second compound decreased by 2-fold or more when EPZ-5676 was added as compared to the DMSO control)
Cn1cnc2c(F)c(Nc3ccc(Br)cc3Cl)c(C(=O)NOCCO)cc21 [Selumetinib (AZD6244), Selumetinib] | Synergy (considered synergistic if the IC50 value of the second compound decreased by 2-fold or more when EPZ-5676 was added as compared to the DMSO control)
CC1=CC(=O)c2ccccc2C1=O [Menadione] | Synergy (considered synergistic if the IC50 value of the second compound decreased by 2-fold or more when EPZ-5676 was added as compared to the DMSO control)
CC1=C(/C=C/C(C)=C\C=C\C(C)=C\C(=O)O)C(C)(C)CCC1 [Alitretinoin] | Synergy (considered synergistic if the IC50 value of the second compound decreased by 2-fold or more when EPZ-5676 was added as compared to the DMSO control)
NC1(c2ccc(-c3nc4ccn5c(=O)[nH]nc5c4cc3-c3ccccc3)cc2)CCC1 [MK2206] | Synergy (considered synergistic if the IC50 value of the second compound decreased by 2-fold or more when EPZ-5676 was added as compared to the DMSO control)
C=C(c1ccc(C(=O)O)cc1)c1cc2c(cc1C)C(C)(C)CCC2(C)C [Bexarotene] | Synergy (considered synergistic if the IC50 value of the second compound decreased by 2-fold or more when EPZ-5676 was added as compared to the DMSO control)
CN(C)C(=O)c1cc2cnc(Nc3ccc(N4CCNCC4)cn3)nc2n1C1CCCC1 [LEE011] | Synergy (considered synergistic if the IC50 value of the second compound decreased by 2-fold or more when EPZ-5676 was added as compared to the DMSO control)
Cc1cccc(CC(=O)N2CCc3c2ccc(-c2cn(C)c4ncnc(N)c24)c3F)n1 [GSK2656157] | Synergy (considered synergistic if the IC50 value of the second compound decreased by 2-fold or more when EPZ-5676 was added as compared to the DMSO control)
CS(=O)(=O)CCNCc1ccc(-c2ccc3ncnc(Nc4ccc(OCc5cccc(F)c5)c(Cl)c4)c3c2)o1 [Lapatinib] | Synergy (considered synergistic if the IC50 value of the second compound decreased by 2-fold or more when EPZ-5676 was added as compared to the DMSO control)
Nc1cccc2c1C(=O)N(C1CCC(=O)NC1=O)C2=O (stereo not drawn) [Pomalidomide] | Synergy (considered synergistic if the IC50 value of the second compound decreased by 2-fold or more when EPZ-5676 was added as compared to the DMSO control)
COCc1c(C(C)C)nc(C(C)C)c(/C=C/[C@@H](O)C[C@@H](O)CC(=O)O)c1-c1ccc(F)cc1 [Cerivastatin Sodium] | Synergy (considered synergistic if the IC50 value of the second compound decreased by 2-fold or more when EPZ-5676 was added as compared to the DMSO control)
Cn1ncnc1[C@H]1c2n[nH]c(=O)c3cc(F)cc(c23)N[C@@H]1c1ccc(F)cc1 [BMN 673] | Synergy (considered synergistic if the IC50 value of the second compound decreased by 2-fold or more when EPZ-5676 was added as compared to the DMSO control)
O=C(Nc1ccc2[nH]nc(-c3ccncc3)c2c1)[C@@H]1CCN(CC(=O)N2CCN(c3ccc(-c4ncccn4)cc3)CC2)C1 [SCH772984] | Synergy (considered synergistic if the IC50 value of the second compound decreased by 2-fold or more when EPZ-5676 was added as compared to the DMSO control)
